Results deposited as PubChem BioAssay AID1224830 (NIAID, 2016).
Purpose: 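Host factors that control LPS-induced TNF expression in human macrophages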 (primary screen). Cells: human THP-1 monocytic leukaemia cells, TNF dual-luciferase reporter clone, PMA-differentiated to macrophage-like cells. Reagent: siRNA pool against human genes, 50 nM. Timing: LPS for 4 h, given about 3 days after siRNA transfection. Challenge: bacterial LPS (TLR4 ligand), 10 ng/ml. Measured: 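Ratio of firefly to renilla light, scaled to the plate median and expressed as a robust z-score per replicate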. Reading the numbers: TNF reporter robust z-score: higher = stronger TNF reporter response to LPS. Hit rule: 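a well is active when its z-score exceeds 2.8 or falls below -1.5; control wells carry no call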.
The deposit covers about 18,000 reagents; shown is a part drawn at random. Of all reagents, about 2,900 (16%) are marked active. 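Calls are made per well; low scores hint the gene aids the LPS response, high scores that it dampens it.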 Repeated entries: four replicate wells of each siRNA pool. Reagent sequences are not shown.

target gene | PubChem SID | TNF reporter robust z-score | Call
SIRT5 | SID315455220 | 0.07 | inactive
SIRT5 | SID315455220 | -0.04 | inactive
SIRT5 | SID315455220 | -0.28 | inactive
SIRT5 | SID315455220 | 0.24 | inactive
PPP1R8 | SID315450747 | -1.3 | inactive
PPP1R8 | SID315450747 | -1 | inactive
PPP1R8 | SID315450747 | -1.16 | inactive
PPP1R8 | SID315450747 | -0.09 | inactive
GATAD1 | SID315458589 | -0.85 | inactive
GATAD1 | SID315458589 | 0.43 | inactive
GATAD1 | SID315458589 | -0.43 | inactive
GATAD1 | SID315458589 | -0.69 | inactive
MCTP1 | SID315459448 | 0.18 | inactive
MCTP1 | SID315459448 | 0.71 | inactive
MCTP1 | SID315459448 | 0.81 | inactive
MCTP1 | SID315459448 | 1.45 | inactive
SMR3A | SID315455856 | -0.73 | inactive
SMR3A | SID315455856 | 0.2 | inactive
SMR3A | SID315455856 | 0.72 | inactive
SMR3A | SID315455856 | 1.17 | inactive
ABCG5 | SID315458880 | -1.24 | inactive
ABCG5 | SID315458880 | -0.92 | inactive
ABCG5 | SID315458880 | -1.01 | inactive
ABCG5 | SID315458880 | 0.01 | inactive
PARL | SID315457648 | -0.79 | inactive
PARL | SID315457648 | 0.05 | inactive
PARL | SID315457648 | -0.19 | inactive
PARL | SID315457648 | -0.3 | inactive
RHOH | SID315447403 | -1.14 | inactive
RHOH | SID315447403 | -0.61 | inactive
RHOH | SID315447403 | -0.93 | inactive
RHOH | SID315447403 | 0.12 | inactive
SPRR2E | SID315451615 | 0.18 | inactive
SPRR2E | SID315451615 | 0.3 | inactive
SPRR2E | SID315451615 | 1.27 | inactive
SPRR2E | SID315451615 | 0.17 | inactive
BARX2 | SID315452638 | -0.48 | inactive
BARX2 | SID315452638 | -0.7 | inactive
BARX2 | SID315452638 | 0.41 | inactive
BARX2 | SID315452638 | 0.71 | inactive
ERN2 | SID315454221 | -0.45 | inactive
ERN2 | SID315454221 | -0.3 | inactive
ERN2 | SID315454221 | -0.34 | inactive
ERN2 | SID315454221 | 0.16 | inactive
ZNF780B | SID315462777 | 0.35 | inactive
ZNF780B | SID315462777 | 1.75 | inactive
ZNF780B | SID315462777 | 0.49 | inactive
ZNF780B | SID315462777 | 1.09 | inactive

Sorted by “TNF reporter robust z-score” (lowest first): some entries from above.
target gene | PubChem SID | TNF reporter robust z-score | Call
GATAD1 | SID315458589 | -0.69 | inactive
GATAD1 | SID315458589 | -0.43 | inactive
MCTP1 | SID315459448 | 0.18 | inactive
MCTP1 | SID315459448 | 0.71 | inactive
